The results in this text go back to publication doi:10.1101/2023.01.15.524091.

Chains of the proteins cited; added tags and fusions are not shown. Lines headed by an entry give the natural chain unless they say otherwise; changes in a name come on top.
UniProt Q01105: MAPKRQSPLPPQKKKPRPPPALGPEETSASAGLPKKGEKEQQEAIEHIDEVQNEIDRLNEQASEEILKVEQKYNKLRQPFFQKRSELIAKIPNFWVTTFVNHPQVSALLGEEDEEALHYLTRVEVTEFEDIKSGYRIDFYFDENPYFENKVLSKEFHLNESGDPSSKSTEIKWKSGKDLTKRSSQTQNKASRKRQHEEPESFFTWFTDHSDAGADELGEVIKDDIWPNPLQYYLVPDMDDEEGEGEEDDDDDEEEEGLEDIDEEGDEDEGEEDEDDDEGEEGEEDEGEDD
UniProt P39687: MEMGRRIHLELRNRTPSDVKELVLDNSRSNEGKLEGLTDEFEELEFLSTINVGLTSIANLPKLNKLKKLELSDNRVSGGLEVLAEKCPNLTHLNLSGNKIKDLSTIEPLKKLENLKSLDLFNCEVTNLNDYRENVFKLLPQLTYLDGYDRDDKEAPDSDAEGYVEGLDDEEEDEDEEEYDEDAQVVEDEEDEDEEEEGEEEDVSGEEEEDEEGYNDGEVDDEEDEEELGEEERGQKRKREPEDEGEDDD
UniProt P63330: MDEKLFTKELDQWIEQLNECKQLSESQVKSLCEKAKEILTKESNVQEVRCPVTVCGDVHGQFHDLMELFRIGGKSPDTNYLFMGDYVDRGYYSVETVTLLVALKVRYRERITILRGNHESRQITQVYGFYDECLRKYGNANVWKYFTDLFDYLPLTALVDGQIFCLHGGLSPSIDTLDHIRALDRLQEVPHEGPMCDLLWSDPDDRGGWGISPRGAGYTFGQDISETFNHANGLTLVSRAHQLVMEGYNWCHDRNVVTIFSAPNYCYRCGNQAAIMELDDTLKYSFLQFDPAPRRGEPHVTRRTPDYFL

Assay [1] has as its target Myc-SET (human full-length SET, stably over-expressed in HEK293T; SET-OE) (human) (UniProt Q01105). The assay is described as follows: affinity purification with mass spectrometry.
The target in assay [2] is Myc-SET (human full-length SET, stably over-expressed in Panc02) (human) (UniProt Q01105). Nature of the assay: affinity purification with mass spectrometry.

These are yes or no findings as the source states them, for the method shown. In cells and extracts the contact can be indirect. These calls come from enrichment with a bait or labelling near it, and not all partners need be listed.

In the case of “ANP32A (PP32), endogenous in HEK293T (from UniProt P39687 1-249)”, the binding entry in assay [1] is “binds”.

Turning to “PP2A-C, endogenous in Panc02 (from UniProt P63330) (enzyme)”, the binding entry in assay [2] is “binds”.
